Experimental data: publication PMC4838861
These are yes or no findings as the source states them, for the method shown. Some entries that bind do so weakly or less than the wild type.

Amino acid sequences for entries named in this document (tags omitted).
UniProt P25515: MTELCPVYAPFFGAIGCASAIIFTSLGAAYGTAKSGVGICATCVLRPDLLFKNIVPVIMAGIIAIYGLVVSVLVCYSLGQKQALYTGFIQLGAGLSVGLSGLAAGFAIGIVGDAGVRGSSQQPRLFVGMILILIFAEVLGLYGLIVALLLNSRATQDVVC

Molecular target: yeast V-ATPase subunit c (S. cerevisiae) (UniProt P25515)
Assay: SEC; c-ring released from purified Vo with SLS and LPPG, ammonium sulfate precipitation of a and d, dialysis against DDM buffer, Superdex 200; SDS-PAGE with Coomassie or silver stain

binding: binds
Substance: yeast V-ATPase subunit c (from UniProt P25515 1-160)
